Measurements reported in patent US20180016352A1 (published 2018).
These are yes or no findings as the source states them, for the method shown. Some binding calls cover weakened binding; strength is not graded here.

Protein sequences, listed by entry. Tags and fused reporters are not part of them. Residues count along the entry.
UniProt P35968, residues 20-764: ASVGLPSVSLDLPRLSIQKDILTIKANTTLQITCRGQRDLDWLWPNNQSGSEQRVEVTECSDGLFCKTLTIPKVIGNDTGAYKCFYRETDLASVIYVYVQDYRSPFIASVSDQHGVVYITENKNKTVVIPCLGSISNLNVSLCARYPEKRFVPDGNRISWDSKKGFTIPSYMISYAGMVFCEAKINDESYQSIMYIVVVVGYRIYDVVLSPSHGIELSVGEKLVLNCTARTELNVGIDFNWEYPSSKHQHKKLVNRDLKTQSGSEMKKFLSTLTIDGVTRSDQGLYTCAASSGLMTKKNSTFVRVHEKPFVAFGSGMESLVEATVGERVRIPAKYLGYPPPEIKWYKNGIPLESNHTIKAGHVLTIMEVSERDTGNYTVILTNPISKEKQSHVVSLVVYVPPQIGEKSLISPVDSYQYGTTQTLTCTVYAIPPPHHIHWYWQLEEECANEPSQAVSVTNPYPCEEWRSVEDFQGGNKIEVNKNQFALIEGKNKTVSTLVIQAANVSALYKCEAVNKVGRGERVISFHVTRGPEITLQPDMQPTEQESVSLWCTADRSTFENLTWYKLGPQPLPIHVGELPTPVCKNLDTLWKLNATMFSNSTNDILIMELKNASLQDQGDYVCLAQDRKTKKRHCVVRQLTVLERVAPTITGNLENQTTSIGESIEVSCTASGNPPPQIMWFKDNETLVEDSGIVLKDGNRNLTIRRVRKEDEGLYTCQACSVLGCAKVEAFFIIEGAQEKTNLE

Target: recombinant VEGFR2 receptor (UniProt P35968)
Experiment: indirect ELISA, recombinant receptor coated, anti-c-myc HRP

binding: binds
B1: VEGF-15.2 (BsAb targeting VEGFR2) (other)
chain: HHHHHHEVVKFMDVYQRSYCHPIETLVDIFQEYPDEIEYIFKPSCVPLMRCGGCCNDEGLECVPTEESNITMQIMRIKPHQGQHIGEMSFLQHNKCECRPKKDGSTSGSGKSSEGKGEVVKFMDVYQRSYCHPIETLVDIFQEYPDEIEYIFKPSCVPLMRCGGCCNDEGLECVPTEESNITMQIMRIKPHQGQHIGEMSFLQHNKCECRPKKDSGGGGSEVKLEESGGGLVQPGGSMKLSCVASGFTFSNYWMNWVRQSPEKGLEWVTEIRSKSNNYATHYAESVKGRFTISRDDSKGSVYLQMNNLRAEDTGIYYCSNRYYWGQGTLVTVSAGGGGSGGGGSGGGGSDIVMTQSHKFMSTSVRDRVTITCKASQDVNTSVAWYQQKPGQSPKLVIYWASTRHTGVPDRFTGSGSGTDFTLTISNVQSEDLADYFCLQYINYPYTFGGGTKLEIKEQKLISEEDLN
